Data taken from PubChem BioAssay AID1508600 (Functional Genomics Laboratory (NCATS/FGL), 2020).
About 3,700 (7%) of roughly 53,000 sequences were called active.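 The calls were made as follows: active = gene knockdowns whose robust z-score for IL-1 alpha signal is at least 2 or at most -2, so actives lie on both sides; inactive = the rest.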 This is one part of the list.

Experiment: Components of the Cytosolic LPS Sensing Pathway: Gene Identification via Genome-wide siRNA Screen;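 also: robust z of the log signal after scaling to non-targeting control siRNA wells of the plate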
Conditions: RAW264.7 macrophages, IL-1a HTRF, actives lie on both sides, screened at 100 nM (by protocol), cells primed 5 h with Pam3CSK4 first
Summary of the method: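 Cells (RAW264.7, 1×10^4 per well) were transfected with siRNA at 100 nM and cultured 48h at 37 degrees C. Pam3CSK4 was added for 5 hours; LipidA transfection followed for 24 hour. IL-1a was then measured by HTRF.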

Row | Sequence | z-score
1 | UAAAUGAGCUCGUAAUCUUTT against Olfr874 | active: 3.23
2 | CCUAGGUGUCGUACACAAATT against Galns | active: 2.45
3 | CGUUAGCAGGCAACAAAUCTT against Cyp2d13 | inactive: -1.04
4 | GUACUACAUGGAUCUCAAGTT against Pura | inactive: 1.59
5 | GGAGGUAGAGAUGUCCACCTT against Serpinb6b | inactive: 0.866
6 | GCACUUCUCAGUCUAUAACTT against Gm773 | inactive: 1.66
7 | GGAACAGUUCCUUGUGGUUTT against Uqcrh | inactive: 0.935
8 | GGGAGUUAAGAGCAUUCUCTT against Prl2a1 | inactive: 0.818
9 | GGGAAAUUCUGUCUAUUUUTT against Bmp5 | inactive: 1.14
10 | GGAGUACAGAAGUAAUCUCTT against Psme3ip1 | inactive: 1.71
11 | GGAAAACACAGCUACGGAATT against Ak5 | active: 2.21
12 | CCCUAAUGUGUAAAUGCAATT against Serp1 | inactive: -0.558
13 | GCGACUUAGGGAAAGAUACTT against Mtfp1 | inactive: -0.979
14 | CCACAAGGAACAAUGAUCCTT against Kirrel3 | inactive: -0.721
15 | GGGAUCAAUGGCUACCUGUTT against Slc7a10 | inactive: -0.0112
16 | GGGAAAUUUGGUGGCUACATT against Col14a1 | inactive: -0.215
17 | CCUCCUAUCGGCGAAGAAATT against Olfr282 | inactive: 1.61
18 | CAUGGAGGUCCUCAGAGACTT against Prb1 | inactive: -1.69
19 | GGAAGGAAACUGAUUGAGGTT against Slc30a7 | inactive: -0.336
20 | GGCUCAUCUGUCUAAAAUUTT against Spag1 | inactive: -0.205
21 | CCCAUCCAAUAAGCAAUUGTT against Lpcat2 | inactive: -0.696
22 | GGAGGAGCAGGAACAGUAUTT against B4gat1 | inactive: -0.955
23 | CCCUAAGCUGAAACGAAAUTT against Tas2r119 | inactive: 0.611

Row | Sequence | z-score
24 | CCCACGGAAAACAAUAUUUTT against Cpeb4 | inactive: -0.0851
25 | GCCUAUAAGAACUUUUUCATT against Tnc | inactive: 0.497
26 | GCUUGGACUGGAGUGAAGCTT against Map6d1 | active: -2.4
27 | GGAAAGUCCUGGGAAAUACTT against Olfr697 | inactive: -0.392
28 | GCAGAUGUACUCUAAGGGUTT against Adam23 | inactive: 1.17
29 | GAGAAUCCCUUCGAGUACGTT against Fxyd2 | inactive: 0.528
30 | GGUCAAUGAAGAUGAACUGTT against Fxyd2 | inactive: 0.905
31 | GGUUGUCUGGAAUUUCCAUTT against Immp2l | active: 3.81
32 | GCCGUUUCACAGAGUACUCTT against Ltv1 | inactive: 0.555
33 | GGGAGGAAGUGGAAGUUCUTT against Tsc22d1 | inactive: 0.488
34 | GGCUCCAAGCACUAAAUAATT against B130024G19Rik | inactive: 0.168
35 | GGGUCCAGAAAUCAUGUUATT against Slc35a5 | inactive: -0.982
36 | CGGCAACUAUCCAUUGAAATT against Cyp2c50 | inactive: -0.826
37 | GGAAUUGAAACCUGAUGUUTT against Srfbp1 | inactive: 0.239
38 | GGCAACAUGCGGACAACAUTT against Trim14 | inactive: -0.42
39 | GCUGUUGAAAGCCUUCUGGTT against Krtap9-3 | inactive: 0.571
40 | GGUUACAUGCCCUACCUCATT against Def6 | inactive: 0.23
41 | GCCUAAUUAUGAUAGCAGUTT against Olfr639 | inactive: 0.834
42 | GGCACAGGGACCAUUGUUGTT against Hsd17b1 | inactive: -1.72
43 | GGAGUUGGUUCUGUGUUAUTT against Tcf7l2 | inactive: -0.271
44 | GCUGUAACUACAUUUGAGGTT against Rnf220 | inactive: -1.62
45 | GGCGUGAUCGCUCUCCAAUTT against Ncoa5 | inactive: 0.834
46 | GGCACUCAGUAACUGCAUGTT against Jakmip1 | inactive: 1.14

Row | Sequence | z-score
47 | CGACUUCAAAUCUGGGCCATT against Psmd14 | inactive: -1.03
48 | GCCGUUGCCUUUCAAGGGATT against Inhbe | inactive: -0.112
49 | CCCACUAAGGAGAUCAGUUTT against Lasp1 | inactive: 1.32
50 | GGAAGUUCUGCACACAGCATT against Pth1r | inactive: -0.921
51 | CCUAUACAAGGGAGGUGAATT against Il1f10 | inactive: -0.283
52 | GCAUUGACAUCGAUCAGAUTT against Irx1 | inactive: -0.642
53 | CCAGUACGGCCCUAUGAAUTT against Zic2 | inactive: -1.84
54 | GGUGGAAUGUCACUACACUTT against Calcoco1 | inactive: 0.916
55 | GGUAACACAGAAGAAAUCUTT against Higd1a | inactive: -0.0444
56 | CCUUCAGAUAUCUUAGAAATT against Selenoi | inactive: -0.334
57 | GGCAGCUGUUAUGCUUUUCTT against Cd302 | inactive: 0.822
58 | CCUUAUUUUGACCGUCCAATT against Ylpm1 | inactive: 0.123
59 | CCAACGAAUUCUUGUUACUTT against Kcnc3 | inactive: 0.376
60 | GGCUGCUGCUCAGUCUUUATT against Pou2f1 | inactive: 0.249
61 | GGAAUAUGCACUUAAGCAATT against Cdk19 | inactive: 0.481
62 | GGAGCUGAUCUUUUCAGUGTT against Slc35b3 | inactive: 1.01
63 | GGUGUGCUCUGUAAAUCAUTT against Trappc2 | inactive: 0.656
64 | GGGCAACAUUUUGGAUUAUTT against Naglu | inactive: -0.083
65 | CCGUAAUUACCUAAAACUCTT against Tbc1d9 | inactive: -0.649
66 | GGCUUUUGAGAAUUCAUUCTT against Kcna5 | active: 2.75
67 | GGAGCUUUUUAUGUUUUAGTT against Fam177a | inactive: 1.93
68 | GGCUAUGAGAUUUAGAGCATT against Ms4a13 | inactive: 0.509

In a second layout: entries from further up.
Row	Sequence	z-score
20	GGCUCAUCUGUCUAAAAUUTT against Spag1	inactive: -0.205
24	CCCACGGAAAACAAUAUUUTT against Cpeb4	inactive: -0.0851
25	GCCUAUAAGAACUUUUUCATT against Tnc	inactive: 0.497
26	GCUUGGACUGGAGUGAAGCTT against Map6d1	active: -2.4
28	GCAGAUGUACUCUAAGGGUTT against Adam23	inactive: 1.17
37	GGAAUUGAAACCUGAUGUUTT against Srfbp1	inactive: 0.239
39	GCUGUUGAAAGCCUUCUGGTT against Krtap9-3	inactive: 0.571
47	CGACUUCAAAUCUGGGCCATT against Psmd14	inactive: -1.03
48	GCCGUUGCCUUUCAAGGGATT against Inhbe	inactive: -0.112
49	CCCACUAAGGAGAUCAGUUTT against Lasp1	inactive: 1.32
55	GGUAACACAGAAGAAAUCUTT against Higd1a	inactive: -0.0444
58	CCUUAUUUUGACCGUCCAATT against Ylpm1	inactive: 0.123
59	CCAACGAAUUCUUGUUACUTT against Kcnc3	inactive: 0.376
60	GGCUGCUGCUCAGUCUUUATT against Pou2f1	inactive: 0.249
68	GGCUAUGAGAUUUAGAGCATT against Ms4a13	inactive: 0.509
